From publication PMC10082800
Results are given in words; binding and its absence hold for the method and conditions named. Binding seen in cells or lysates may run through a third protein. Some binding calls cover weakened binding; strength is not graded here. For some assays here: Tags and fused reporters may be left off the sequences shown.

Sequences of proteins named here, by UniProt entry; tags and fusion partners are left off.
UniProt P51617: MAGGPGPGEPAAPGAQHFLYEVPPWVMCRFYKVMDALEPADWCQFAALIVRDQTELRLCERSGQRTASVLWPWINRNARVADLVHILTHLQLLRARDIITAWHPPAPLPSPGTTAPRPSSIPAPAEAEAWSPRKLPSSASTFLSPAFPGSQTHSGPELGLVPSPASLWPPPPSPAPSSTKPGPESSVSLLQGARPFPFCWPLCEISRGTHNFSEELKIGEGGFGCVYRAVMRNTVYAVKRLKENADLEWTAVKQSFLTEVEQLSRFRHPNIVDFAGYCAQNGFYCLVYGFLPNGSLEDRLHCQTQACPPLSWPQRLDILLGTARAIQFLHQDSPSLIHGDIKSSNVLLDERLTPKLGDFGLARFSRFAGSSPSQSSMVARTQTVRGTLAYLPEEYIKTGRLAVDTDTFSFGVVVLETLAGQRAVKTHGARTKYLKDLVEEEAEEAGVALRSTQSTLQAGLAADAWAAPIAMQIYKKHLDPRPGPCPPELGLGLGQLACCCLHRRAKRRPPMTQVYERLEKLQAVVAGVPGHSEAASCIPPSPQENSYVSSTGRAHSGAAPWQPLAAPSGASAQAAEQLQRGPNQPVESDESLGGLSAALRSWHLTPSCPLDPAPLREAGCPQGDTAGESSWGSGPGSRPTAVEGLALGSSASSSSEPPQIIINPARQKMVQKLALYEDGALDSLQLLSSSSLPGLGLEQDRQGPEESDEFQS

T1: Peroxiredoxin 1 (PRDX1), endogenous (human (endogenous in U251)) (UniProt Q06830)
T1 sequence: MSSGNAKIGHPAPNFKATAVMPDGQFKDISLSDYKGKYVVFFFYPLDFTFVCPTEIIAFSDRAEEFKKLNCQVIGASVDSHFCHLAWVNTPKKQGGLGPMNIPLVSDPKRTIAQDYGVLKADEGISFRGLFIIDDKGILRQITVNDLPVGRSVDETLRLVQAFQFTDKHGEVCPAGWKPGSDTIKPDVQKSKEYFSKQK

T2: Myc-PRDX1 (human) (UniProt Q06830)
T2 sequence: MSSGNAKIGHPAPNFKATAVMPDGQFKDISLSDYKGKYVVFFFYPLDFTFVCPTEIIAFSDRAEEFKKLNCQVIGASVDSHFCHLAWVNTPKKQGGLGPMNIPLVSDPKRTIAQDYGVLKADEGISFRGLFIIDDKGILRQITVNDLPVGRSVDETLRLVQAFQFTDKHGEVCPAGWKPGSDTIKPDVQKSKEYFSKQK


How the values were obtained:
[1] = target: T1, Peroxiredoxin 1 (PRDX1), endogenous (human (endogenous in U251)); assay: co-IP; endogenous proteins, U251 cell lysate; Pierce Crosslink Magnetic IP/Co-IP kit or Protein A/G PLUS-Agarose; Western blotting
[2] = target: Interleukin-1 receptor associated kinase 1 (IRAK1), endogenous (human (endogenous in U251)) (UniProt P51617); assay: as above
[3] = target: T2, Myc-PRDX1 (human); assay: co-IP; tagged proteins transiently co-transfected into 293T cells; for HECTD3 constructs IP with anti-Myc antibody; Western blotting

Row | binding [1] | binding [2] | binding [3] | Binder
1 | binds | binds | – | E3 ubiquitin ligase HECTD3, endogenous (protein, UniProt Q5T447 1-861) MAGPGPGAVLESPRQLLGRVRFLAEAARSLRAGRPLPAALAFVPREVLYKLYKDPAGPSRVLLPVWEAEGLGLRVGAAGPAPGTGSGPLRAARDSIELRRGACVRTTGEELCNGHGLWVKLTKEQLAEHLGDCGLQEGWLLVCRPAEGGARLVPIDTPNHLQRQQQLFGVDYRPVLRWEQVVDLTYSHRLGSRPQPAEAYAEAVQRLLYVPPTWTYECDEDLIHFLYDHLGKEDENLGSVKQYVESIDVSSYTEEFNVSCLTDSNADTYWESDGSQCQHWVRLTMKKGTIVKKLLLTVDTTDDNFMPKRVVVYGGEGDNLKKLSDVSIDETLIGDVCVLEDMTVHLPIIEIRIVECRDDGIDVRLRGVKIKSSRQRELGLNADLFQPTSLVRYPRLEGTDPEVLYRRAVLLQRFIKILDSVLHHLVPAWDHTLGTFSEIKQVKQFLLLSRQRPGLVAQCLRDSESSKPSFMPRLYINRRLAMEHRACPSRDPACKNAVFTQVYEGLKPSDKYEKPLDYRWPMRYDQWWECKFIAEGIIDQGGGFRDSLADMSEELCPSSADTPVPLPFFVRTANQGNGTGEARDMYVPNPSCRDFAKYEWIGQLMGAALRGKEFLVLALPGFVWKQLSGEEVSWSKDFPAVDSVLVKLLEVMEGMDKETFEFKFGKELTFTTVLSDQQVVELIPGGAGIVVGYGDRSRFIQLVQKARLEESKEQVAAMQAGLLKVVPQAVLDLLTWQELEKKVCGDPEVTVDALRKLTRFEDFEPSDSRVQYFWEALNNFTNEDRSRFLRFVTGRSRLPARIYIYPDKLGYETTDALPESSTCSSTLFLPHYASAKVCEEKLRYAAYNCVAIDTDMSPWEE
2 | – | – | binds | full-length Flag-HECTD3 (protein, UniProt Q5T447 1-861) MAGPGPGAVLESPRQLLGRVRFLAEAARSLRAGRPLPAALAFVPREVLYKLYKDPAGPSRVLLPVWEAEGLGLRVGAAGPAPGTGSGPLRAARDSIELRRGACVRTTGEELCNGHGLWVKLTKEQLAEHLGDCGLQEGWLLVCRPAEGGARLVPIDTPNHLQRQQQLFGVDYRPVLRWEQVVDLTYSHRLGSRPQPAEAYAEAVQRLLYVPPTWTYECDEDLIHFLYDHLGKEDENLGSVKQYVESIDVSSYTEEFNVSCLTDSNADTYWESDGSQCQHWVRLTMKKGTIVKKLLLTVDTTDDNFMPKRVVVYGGEGDNLKKLSDVSIDETLIGDVCVLEDMTVHLPIIEIRIVECRDDGIDVRLRGVKIKSSRQRELGLNADLFQPTSLVRYPRLEGTDPEVLYRRAVLLQRFIKILDSVLHHLVPAWDHTLGTFSEIKQVKQFLLLSRQRPGLVAQCLRDSESSKPSFMPRLYINRRLAMEHRACPSRDPACKNAVFTQVYEGLKPSDKYEKPLDYRWPMRYDQWWECKFIAEGIIDQGGGFRDSLADMSEELCPSSADTPVPLPFFVRTANQGNGTGEARDMYVPNPSCRDFAKYEWIGQLMGAALRGKEFLVLALPGFVWKQLSGEEVSWSKDFPAVDSVLVKLLEVMEGMDKETFEFKFGKELTFTTVLSDQQVVELIPGGAGIVVGYGDRSRFIQLVQKARLEESKEQVAAMQAGLLKVVPQAVLDLLTWQELEKKVCGDPEVTVDALRKLTRFEDFEPSDSRVQYFWEALNNFTNEDRSRFLRFVTGRSRLPARIYIYPDKLGYETTDALPESSTCSSTLFLPHYASAKVCEEKLRYAAYNCVAIDTDMSPWEE
3 | – | binds | – | Peroxiredoxin 1 (PRDX1), endogenous (protein, UniProt Q06830 1-199) MSSGNAKIGHPAPNFKATAVMPDGQFKDISLSDYKGKYVVFFFYPLDFTFVCPTEIIAFSDRAEEFKKLNCQVIGASVDSHFCHLAWVNTPKKQGGLGPMNIPLVSDPKRTIAQDYGVLKADEGISFRGLFIIDDKGILRQITVNDLPVGRSVDETLRLVQAFQFTDKHGEVCPAGWKPGSDTIKPDVQKSKEYFSKQK
4 | – | – | binds | Flag-HECT domain of HECTD3 (domain or fragment, UniProt Q5T447 512-857) YEKPLDYRWPMRYDQWWECKFIAEGIIDQGGGFRDSLADMSEELCPSSADTPVPLPFFVRTANQGNGTGEARDMYVPNPSCRDFAKYEWIGQLMGAALRGKEFLVLALPGFVWKQLSGEEVSWSKDFPAVDSVLVKLLEVMEGMDKETFEFKFGKELTFTTVLSDQQVVELIPGGAGIVVGYGDRSRFIQLVQKARLEESKEQVAAMQAGLLKVVPQAVLDLLTWQELEKKVCGDPEVTVDALRKLTRFEDFEPSDSRVQYFWEALNNFTNEDRSRFLRFVTGRSRLPARIYIYPDKLGYETTDALPESSTCSSTLFLPHYASAKVCEEKLRYAAYNCVAIDTDMS
